Results as given in patent publication US20140350034A1, “Aminopyridine derivatives as plasma kallikrein inhibitors” (NOVARTIS AG, priority 2012, published 2014).
Some of these results come from one statement about several compounds together.

Sequences of proteins named here, by UniProt entry; tags and fusion partners are left off. Residues count along the entry.
UniProt P03952, 20-390 partner limits assumed: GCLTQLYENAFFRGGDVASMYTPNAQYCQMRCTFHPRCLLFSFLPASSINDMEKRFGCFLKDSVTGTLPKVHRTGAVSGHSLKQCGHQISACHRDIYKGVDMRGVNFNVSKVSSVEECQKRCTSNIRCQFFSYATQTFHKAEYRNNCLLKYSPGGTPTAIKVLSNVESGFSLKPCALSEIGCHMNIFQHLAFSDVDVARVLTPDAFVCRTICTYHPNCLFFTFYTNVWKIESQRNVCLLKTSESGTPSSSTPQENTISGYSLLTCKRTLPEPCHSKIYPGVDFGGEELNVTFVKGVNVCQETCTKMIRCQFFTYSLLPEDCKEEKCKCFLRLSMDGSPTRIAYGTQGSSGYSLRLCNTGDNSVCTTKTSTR
UniProt P03952, 391-638 limits assumed: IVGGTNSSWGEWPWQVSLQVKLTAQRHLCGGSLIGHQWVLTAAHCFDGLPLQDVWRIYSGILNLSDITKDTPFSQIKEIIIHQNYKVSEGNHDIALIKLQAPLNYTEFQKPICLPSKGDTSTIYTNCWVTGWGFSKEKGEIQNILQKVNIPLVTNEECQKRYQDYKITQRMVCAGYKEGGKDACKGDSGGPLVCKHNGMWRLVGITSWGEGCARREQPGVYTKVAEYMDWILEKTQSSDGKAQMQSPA

Molecular target: T1, Human plasma kallikrein (Homo sapiens, UniProt P03952)
T1 construct: purchased Kordia (Leiden, Netherlands) batch HPKA 1303
Experiment: In vitro inhibition of plasma kallikrein (fluorogenic substrate DPro-Phe-Arg-(Rh110)-γGlu-OH)
Type: biochemical
Conditions: the above-described assay (human plasma kallikrein)
Description: In Vitro Inhibition of Plasma Kallikrein
The fluorogenic substrate DPro-Phe-Arg-(Rh110)-γGlu-OH (where DPro is the amino acid d-proline, Rh110 is the fluorophore rhodamine 110 and γGlu is a […] linked to Rh110 via the gamma-carbonyl function; from Biosyntan, Berlin, Germany), being based on the chromogenic substrate described in Gallimore et al (Thromb Res 25, 293-298, 1982), was dissolved in DMSO at 5 mM and stored at −80° C. All other chemicals were of analytical grade.
Human plasma kallikrein was purchased from Kordia (Leiden, Netherlands, batch HPKA 1303) in lyophilized form.
The protein solution was reconstituted from the lyophilisate by addition of deinonized water. […]
All protein and peptide containing solutions were handled in siliconized tubes (Life Systems Design, Merenschwand, Switzerland). […] Plate measurements were conducted by the means of a Safire2 reader (TECAN, Maennedorf, Switzerland). The Safire2 is a monochomator-based instrument and wavelengths of 485 nm and 535 nm were taken for fluorescence excitation and emission acquisition, respectively. […] The fluorescence in each well was excited by three flashes per measurement. […]
The test compound was dissolved in 90% (v/v) DMSO/water. […] The effect of the compound on the enzymatic activity was obtained from the linear part of the progress curves and determined after 1 hour (t=60 min). […]

## ((6-amino-2,4-dimethyl-pyridin-3-yl)-methylamino)-(9-methyl-7,9-diaza-bicyclo[4.3.0]nona-1(6),2,4,7-tetraen-3-yl)-methanone
  IC50: > 30 µM
